# In US20120219506A1, “Catenae: Serosal Cancer Stem Cells” (SLOAN KETTERING INSTITUTE FOR CANCER RESEARCH, priority 2009, published 2012):
# Tested on: Ovcar3-GTL catenae
# Assay: Ovcar3-GTL catena drug sensitivity (proliferation, alamarBlue, 384-well)
# Conditions: IC50 day 6 / IC50 day 1
structure (smiles),measurement,value
O=C(CCCCCCC(=O)Nc1ccccc1)NO [SAHA],Increase in Resistance Day 6/Day 1,8 fold
